In PubChem BioAssay AID652054 (National Center for Advancing Translational Sciences (NCATS), 2013):
Hit rate of the full screen: of about 360,000 compounds, about 9,100 (2.5%) were called active. Inconclusive results, whose numbers are uncertain, are shown with a selection of clear calls. No stated cut-off is given here; in the data, active means max response below about -50%; inconclusive means no clear call, values can overlap the other calls; inactive means above that.

Sequences of proteins named here, by UniProt entry; tags and fusion partners are left off.
UniProt P35462, whole entry, looked up: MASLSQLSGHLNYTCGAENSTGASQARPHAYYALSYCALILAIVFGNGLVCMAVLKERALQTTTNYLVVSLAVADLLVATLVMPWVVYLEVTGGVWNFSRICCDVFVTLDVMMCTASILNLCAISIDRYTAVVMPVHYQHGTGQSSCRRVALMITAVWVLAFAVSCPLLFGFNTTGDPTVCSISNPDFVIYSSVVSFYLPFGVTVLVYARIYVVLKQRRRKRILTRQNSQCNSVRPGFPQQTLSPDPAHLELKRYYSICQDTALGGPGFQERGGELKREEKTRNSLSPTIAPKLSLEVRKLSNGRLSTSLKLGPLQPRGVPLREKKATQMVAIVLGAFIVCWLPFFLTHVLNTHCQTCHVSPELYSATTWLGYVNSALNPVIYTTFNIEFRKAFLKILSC

The compounds below were run against D(3) dopamine receptor (Homo sapiens) (UniProt P35462) (assay: qHTS of D3 Dopamine Receptor Antagonist: qHTS). Conditions: D3R cells, DiscoveRx beta-arrestin luminescence, antagonist mode; stronger effect = lower value.
Procedure, shortened: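 Cells plated overnight at 1500 cells/well, then exposed to library compounds with dopamine controls for 90 minutes at 37 degrees C. DiscoveRx reagent added for 30–60 minutes at room temperature; luminescence read, quantitative HTS format.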
On the % scale 0 is the no-effect control and ±100 the full control effect.

SMILES | max response, negative = inhibition
COc1cccc(COc2ccccc2C2Nc3ccc(Br)cc3C(=O)N2NC(=O)c2ccncc2)c1 (stereo not drawn) | active: -55.3%
CC1=CC(C)(C)Nc2ccc(OC(=O)c3ccco3)cc21 | inactive: -23.4%
O=C(CCS(=O)(=O)Cc1ccccc1)Nc1nc2c(s1)CCCC2 | active: -103%
CC(C)CC(=O)N1CCN(c2ccc([N+](=O)[O-])c(NCc3ccccc3)c2)CC1 | inconclusive: -34.9%
O=C(CSC1=NNC(c2ccccn2)S1)Nc1ccccc1 (stereo not drawn) | inactive: 6.36%
COC(=O)c1ccc(CSC2=NC[C@@H]3[C@@H]4C(=O)N(Cc5ccccc5)C(=O)[C@@H]4[C@](C)(C(=O)OC)N23)cc1 | inactive: -11.9%
O=C1Nc2c(Cl)cccc2C1=O | inconclusive: -44.7%
NC(=NC(=O)c1ccc(OCC(F)(F)F)nc1)c1ccccc1 | inactive: -10.8%
O=[N+]([O-])c1cc(CN2CCCC2)ccc1Sc1ccc(Cl)cc1 | inconclusive: -44.2%
CCCCN1C(=O)C(=O)N(CC(=O)Nc2cc(OCC)c(N3CCOCC3)cc2OCC)C1=O | inconclusive: -37.4%
COc1ccc(C(=O)N2CCC(N3CCN(c4ccccc4)CC3)CC2)cc1OC | inconclusive: -35.6%
COc1cc(/C=N/NC(=O)COc2ccccc2[N+](=O)[O-])ccc1OC(=O)c1ccco1 | inconclusive: -37.8%
CC(C(=O)Nc1ccc(F)c(F)c1F)N(C)CCOc1ccccc1 (stereo not drawn) | inconclusive: -44.4%
Cc1cc(C)n(/N=C\c2c(O)ccc3ccccc23)c(=O)c1C(N)=O | inconclusive: -48.3%
CC(C)N1CCC(N2CCN(Cc3ccc(-c4ccc(Cl)cc4)o3)CC2CCO)CC1 (stereo not drawn) | inconclusive: -30.1%
CN(C)c1ccc(C#Cc2ccc3cc(CCO)oc(=O)c3c2)cc1 | inactive: 40.8%
O=C(CCS(=O)(=O)c1ccc(Cl)cc1)OCC(=O)N1CCCCC1 | inconclusive: -42.6%
CCOc1cc(/C=N/NC(N)=S)cc(Br)c1OCc1ccccc1C | inactive: -15.5%
Cc1[nH][nH]c(=O)c1N=Nc1ccc(Cl)cc1 | inconclusive: -44.2%
C/C=C/c1cccc(-c2nc(C(=O)NC3CCCC3)cc3c2[C@@H](CCO)N(S(=O)C(C)(C)C)C3)c1 (stereo partly drawn) | inactive: 0%
CC1CC2CCCC(O)=C2C(=O)O1 (stereo not drawn) | inconclusive: -31.1%
CNC(=O)CSc1nc2nn(-c3ccccc3)c(=O)c-2c2n1CCCCC2 | inconclusive: -38.4%

Some of the entries above, reformatted.
CCCCN1C(=O)C(=O)N(CC(=O)Nc2cc(OCC)c(N3CCOCC3)cc2OCC)C1=O
  max response, negative = inhibition: inconclusive: -37.4%
CCOc1cc(/C=N/NC(N)=S)cc(Br)c1OCc1ccccc1C
  max response, negative = inhibition: inactive: -15.5%

Additional compounds.

SMILES | max response, negative = inhibition
O=C(NCCN1CCOCC1)c1cc2sccc2n1Cc1ccc(F)cc1 | active: -96.8%
OCC[C@H]1C[C@H](O)[C@@H](O)[C@@]2(Cc3ccccc3O2)O1 | inactive: -6.23%
NC(=O)[C@@H]1CC2(CC(c3cccc(NC(=O)CC(c4ccccc4)c4ccccc4)c3)=NO2)CN1C(=O)[C@@H]1CCC(=O)N1 (stereo partly drawn) | inconclusive: -44.1%
CN1CCN(CC#CCC(O)(c2ccccc2)C2CCCC2)CC1 (stereo not drawn) | inconclusive: -39.6%
Cc1ccc(C(C)C)c(OCCCCCN2CCOCC2)c1 | active: -51.9%
Cc1ccc(CNC(=O)COc2ccc(C(=O)c3ccc(F)cc3)cc2)cc1 | inactive: 6.9%
Cn1c(SCCS(=O)(=O)c2ccc(Cl)cc2)nnc1-c1ccccc1 | inconclusive: -32%
Cc1nnc(SCCN2CCOCC2)n1-c1cccc(Cl)c1 | inconclusive: -49%
COCCCNC(=O)Cn1ccc(NC(=O)OCc2ccccc2)nc1=O | inconclusive: -32.2%
CC(C)COC(=O)n1c(=O)oc2cc(S(=O)(=O)N3CCCCC3)ccc21 | inactive: -2.34%
O=c1cc(/N=C/c2coc3cc(Br)ccc3c2=O)[nH]c(=S)[nH]1 | inconclusive: -39.8%
Cc1ccccc1OCC(=O)OCC(=O)c1ccc(OCc2ccccc2)cc1 | inactive: -2.54%
CN(C)c1oc(-c2ccccc2)nc1C#N | inconclusive: -46.5%
COc1ccc(NC(=O)c2cc(-c3ccco3)on2)cc1 | inconclusive: -31.3%
CCCNC(=O)CN1CCN(c2cc3ccccc3c(Cl)n2)CC1 | inconclusive: -33.5%
O=C(Nc1ccc(Cl)cc1F)C1CCCN(C2=NS(=O)(=O)c3ccccc32)C1 (stereo not drawn) | inactive: 0%
CC1=CC(=C(C#N)c2nc3ccccc3s2)C=C(C)N1c1ccc(F)cc1F | active: -51.3%
O=C(NC(C(=O)N/N=C/c1c2ccccc2cc2ccccc12)c1n[nH]c(=O)c2ccccc12)c1ccccc1 (stereo not drawn) | inactive: -4.48%
COc1ccc(Cl)cc1-c1cc(C(=O)NCc2ccccc2)[nH]n1 | active: -59%
O=C(NCCN1CCCC1)C1COc2ccccc2O1 (stereo not drawn) | inconclusive: -35.8%
CC1(OC(=O)CCc2ccccc2)C(=O)C=C2C=C(c3ccc(C#N)cc3)N(Cc3ccccc3)C=C2C1=O (stereo not drawn) | inconclusive: -32.8%
O=C(N/N=C/c1ccc(O)cc1)/C(=C/c1ccc([N+](=O)[O-])cc1)NC(=O)c1ccccc1 | active: -52.3%

SMILES | max response, negative = inhibition
CC(C)CCNC(=O)COc1ccc2c3c(c(=O)oc2c1)CCC3 | inactive: 5.82%
O=C1OC(c2ccccc2)(c2ccccc2)c2ccccc21 | inconclusive: -31.8%
CCOc1ccccc1NC(=S)N1CCCCCC1 | inactive: 3.13%
CCn1ccc(C(=O)Nc2ccccc2Cl)n1 | active: -95.9%
Cc1ccc(CNC(=O)[C@H]2O[C@@H](n3cnc4c(N)ncnc43)[C@H](O)[C@@H]2O)o1 | inconclusive: -33.5%
COc1cc(NC(=O)c2n[nH]c(=O)c3ccccc23)cc(OC)c1 | inactive: -17.9%
CCOc1ccc(NC(=O)c2ccc(F)cc2F)cc1 | active: -64.9%
COC(=O)c1ccc(Oc2c(C)oc3cc(OCc4cnn(-c5ccccc5)c4)ccc3c2=O)cc1 | inactive: 53.7%
COc1ccc(S(=O)(=O)Nc2ccc(CC#N)cc2)cc1 | inactive: -22.2%
CC(C)=CCC[C@H](C)CC1Cc2[nH]c(=S)[nH]c(=O)c2C(c2ccc(Cl)cc2)O1 (stereo partly drawn) | inconclusive: -39.3%
O=S(=O)(c1ccccc1)c1nc(-c2ccccc2Cl)oc1NCCCN1CCOCC1 | active: -71.1%
CCc1ccc(NC(=O)[C@@H](NC(=O)[C@@H]2Cc3ccccc3CN2)C(C)CC)cc1 (stereo partly drawn) | inconclusive: -42.2%
COc1cccc(CN2CCN(c3cccc(C(F)(F)F)c3)CC2)c1OC | active: -73.4%
COC(=O)c1ccc(OCC(=O)NC2CCCCCCC2)cc1 | inconclusive: -31.2%
CC(=O)c1ccc(Nc2cc(C)nc3ccccc23)cc1 | inactive: 2.19%
O=C(NCCS(=O)(=O)N1CCN(c2ccc(F)cc2)CC1)c1ccco1 | inconclusive: -33%
Clc1ccc(OCCn2ccnc2)c(Br)c1 | inconclusive: -36.9%
COc1cc2c(cc1OC)C(c1ccc(-c3ccc(Cl)cc3Cl)o1)=NCC2 | inactive: 39.8%
CCc1cc(=O)oc2c(C)c(OCC(=O)NC3CC(C)(C)NC(C)(C)C3)ccc12 | inconclusive: -32.7%
CCN1CC(CN(C)Cc2cn(-c3cccc(C)c3)nc2-c2cccc(F)c2)CC1=O (stereo not drawn) | inactive: 20%
Cc1cccc(NC(=S)NCCC(c2ccccc2)c2ccccc2)c1 | inconclusive: -37.7%
Cc1ccc(N=Cc2c(O)ccc3ccccc23)cc1F | inconclusive: -37.9%

SMILES | max response, negative = inhibition
Cc1ccc(CN2CCN(Cc3ccccc3)C(CCO)C2)s1 (stereo not drawn) | active: -52.9%
Cc1ccc(S(=O)(=O)N2CCN(C(=O)C3CC3C)CC2)c(C)c1 (stereo not drawn) | active: -64.1%
c1ccc(C(Cc2nc(-c3ccccn3)no2)c2ccccc2)cc1 | inconclusive: -36.3%
CCN(CC)CCCN(C(=O)c1ccco1)c1nc(-c2ccc(C)cc2)cs1 | inconclusive: -31%
O=C1c2ccccc2[C@@H]2C[C@@H](O)[C@H](Nc3cccc(C(F)(F)F)c3)CCN12 | inconclusive: -46.5%
Cc1ccc(S(=O)(=O)N(C)C)cc1NC(=O)CN1CCCC1 | inconclusive: -39.1%
NC(=O)C1Cc2ccccc2CN1C(=O)c1cc(C2CC2)nn1-c1ccccc1 (stereo not drawn) | inactive: -28.2%
COc1ccc2c(c1)C=C(CN1CCC(CO)(CCc3ccccc3)CC1)CO2 | active: -86.5%
Cc1ccc2cc(CN(CCCN3CCOCC3)C(=O)NC3CCCCC3)c(=O)[nH]c2c1C | inconclusive: -45.9%
CCc1cc(C(=O)O)c(NC(=O)C(c2ccccc2)c2ccccc2)s1 | inactive: -14.9%
Cc1cc(C)nc(Nc2ccc(O)cc2)n1 | inactive: 0.751%
CCCCn1c(N)c(N(CCOC)C(=O)COC(=O)Cc2cccc(OC)c2)c(=O)[nH]c1=O | inconclusive: -47.9%
CCn1c(SCC(=O)Nc2cc(NC(C)=O)ccc2OC)nnc1-c1ccccn1 | inconclusive: -47.5%
CC[n+]1c(C)sc2c(C)cc(C)cc21 | inconclusive: -33.3%
O=C(Nc1ccccc1)/C(=C\c1ccncc1)NC(=O)c1ccccc1 | inconclusive: -30.5%
C[C@@H]1CC(=O)[C@H]2CC(CO)=CCC[C@@H]2[C@@]1(C)CC/C(=C/CO)CO | inconclusive: -48.7%
COc1ccc(C2/C=C\CN(CC(C)(C)C)CC(=O)N2Cc2ccc(F)cc2)cc1 (stereo not drawn) | inconclusive: -45.8%
COc1ccc(N2CCN(C(=O)Cn3nnc(-c4cccs4)n3)CC2)cc1 | active: -103%
c1ccc(-c2nc3ccccc3o2)nc1 | inactive: 2.26%
Cc1cccc(N2CCN(C(=S)NCc3ccco3)CC2)c1C | inconclusive: -33.1%
O=C(Nc1cccc(Br)c1)c1cc2ccccc2o1 | inconclusive: -35.7%
COc1ccc(C(CNC(=O)c2cc(S(=O)(=O)N3CCCC3)ccc2Cl)N2CCCC2)cc1 (stereo not drawn) | inconclusive: -41.4%
